The values that follow come from US11000454B2, “Dental composition” (DENTSPLY SIRONA inc., priority 2016, dated 2021).

The series can be described thus: Differential scanning calorimetry (DSC) of photopolymerization. The following applies: polymerization enthalpy determined at 37° C.; composition with stabilizer, 0.3 wt.-% CQ, 0.4 wt.-% DMABE; 100 mW/cm^2. The protocol:
Both ΔH and tmax were determined for a composition respectively containing a compound of formula (Ib), (Ic) or comparative compounds (C1), (C2) or (C3), 0.22 to 0.35 mol-% stabilizer, 0.3 wt.-% camphor quinone (CQ) as photosensitizer, and 0.4 wt.-% 4-(dimethylamino) benzoic acid ethylester (DMABE) as coinitiator. For compound of formula (C1), no ΔH and no tmax was detected (indicated by “*”)
For DSC experiments, compositions containing compound of formula (Ib), (Ic), (C1), (C2) or (C3), 0.22 to 0.35 mol-% of a stabilizer, 0.3 wt.-% camphor quinone (CQ) as photosensitizer and 0.4 wt.-% 4-(dimethylamino) benzoic acid ethylester (DMABE) as coinitiator were provided. In these compositions, the indication mol-% is based on the molar amount of compound of formula (Ib), (Ic), (C1), (C2) or (C3), and the indication wt.-% is based on the total weight of the composition, wherein the remaining mass/weight of the composition is made up of compound of formula (Ib), (Ic), (C1), (C2) or (C3). The compositions were irradiated at 37° C. with SmartLite Focus LED curing light from Dentsply with an Intensity of 100 mW/cm^2, and DSC was carried out with the apparatus Perkin Elmer DSC 7/DPA 7.
On the technique in general: DSC measures the heat that a sample takes up or gives off during a temperature scan.
With `C=CCN(CCCCN(CC=C)C(=O)C=C)C(=O)C=C` [(C2), N,N′-Bisacryloyl-N,N′-bisallyl-1,4-butandiamine, reference compound], the “ΔHØ ± standard deviation” value is listed as −62.35.
The figure for `C=CC(=O)N(CCC)CCCCN(CCC)C(=O)C=C` [(C3), N,N′-Bisacryloyl-N,N′-bispropyl-1,4-butandiamine, reference compound] is −34.70.
The figure for `C=CCN(C/C=C/CN(CC=C)C(=O)C=C)C(=O)C=C` [(Ia)] is −152.905; for `C=CC(=O)N(C/C=C/CN(CCC)C(=O)C=C)CCC` [(Ic), N,N′-Bisacryloyl-N,N′-bispropyl-1,4-but-2-endiamine] it is −97.345; for `C=CCN(C/C=C/C(C)N(CC=C)C(=O)C=C)C(=O)C=C` (centres unmarked) [Compound (Ib)] it is −136.79.
